# In patent US20220112149A1, “DRUG DESIGN METHOD ASSOCIATED WITH NATURAL PRODUCTS, PENTACYCLIC TRITERPENOID COMPOUND, PREPARATION METHOD AND APPLICATIONS THEREOF” (Huazhong Agricultural University, priority 2020, published 2022):
# At least one compound was matched to its structure with a doubt left.
# Legend:
# [1] = test system: ICAM-1 expression in HMEC-1 cells; test: LPS-induced ICAM-1 expression in HMEC-1 cells, flow cytometry; type: cell-based, human; details: 1 μM
# Procedure: (3) Screening candidate molecules with the strongest ICAM-1 inhibitory activity by simulating the physiological model of inflammation that human microvascular endothelial cells (HMEC-1) expressing cell adhesion molecules (ICAM-1) mediate lymphocytes to penetrate blood vessels to infiltrate the damaged tissues. The specific steps are as follows:
# 1) Culture of HMEC-1 cells: HMEC-1 cells are cultured in MCDB131 medium (U.S. Sigma) that contain 10% fetal bovine serum (FBS, Zhejiang Tianhang Biotechnology Co., Ltd.), double antibody (100 U/mL penicillin and 100 μg/mL streptomycin), 1 μg/mL hydrocortisone (Sangon Biotech (Shanghai) Co., Ltd.) and 10 ng/mL human recombinant growth factor (hEGF, Sangon Biotech (Shanghai) Co., Ltd.) at 37° C., 5% CO2, and 100% RH.
# 2) HMEC-1 cells are inoculated into a 24-well plate, and cultured in a cell incubator at 37° C., 5% CO2, and 100% RH. When the cells grow to 80% abundance, different concentrations of drugs are added for 3 h (1 μM Celastrol as a positive control drug). At the end of treatment, 1 μg/mL LPS is added to activate the NF-κB signaling pathway for 12 hours. […] By detecting anti-ICAM-1 fluorescence value by flow cytometry, the expression of ICAM-1 protein in HMEC-1 cells is detected indirectly. […]
# [2] = test system: mRNA of IL-1β, TNF-α, IL-6 and MCP-1; test: qRT-PCR of inflammatory factor mRNA; type: cell-based; details: activated by LPS
# Procedure: FIGS. 10A-10C show the inhibition verification effect chart of GA-02 in Example 5, where FIG. 10A: GA-02 inhibited LPS-induced ICAM-1 expression activity. The inflammatory pathway of HMEC-1 cell was activated by 1 μg/mL LPS, to determine the effect of Celastrol and GA-02 on the expression of ICAM-1 induced by LPS. FIG. 10B: The effect of GA-02 on NF-κB signaling. The NF-κB luciferase reporter plasmid was used to transfect HEK293 cells, and the effects of Celastrol and GA-02 on the NF-κB activity induced by TNF-α were determined; FIG. 10C: qRT-PCR was used to detect mRNA relative expressions of IL-1β, TNF-α, IL-6 and MCP-1.
# ICAM-1 is a downstream effector molecule regulated by NF-κB signaling pathway, and NF-κB plays an important role in regulating the expression of ICAM-1 gene. Celastrol can inhibit the activation of the LPS-induced IKK/NF-κB signaling pathway. In order to validate that GA-02 functions through the IKK/NF-κB signaling pathway, we constructed an NF-κB luciferase reporter gene system to validate the inhibitory activity of Celastrol and GA-02 on the luciferase reporter gene. […] In addition, both Celastrol and GA-02 could down-regulate the mRNA transcription levels of inflammatory factors IL-1β, TNF-α, IL-6 and MCP-1 activated by LPS.
smiles,measurement,setting,value
"CC1=C(O)C(=O)C=C2C1=CC=C1[C@@]2(C)CC[C@@]2(C)[C@@H]3C[C@](C)(C(=O)O)CC[C@]3(C)CC[C@]12C [Celastrol, reference compound]",inhibition of the expression of ICAM-1 activated by LPS,[1],significantly inhibits
same,"mRNA transcription levels of inflammatory factors IL-1β, TNF-α, IL-6 and MCP-1",[2],down-regulate
